Measured values published in US20260209301A1, “Galanin-2 Receptor Agonists” (LIFEARC, priority 2022, published 2026).
At least one peptide structure holds a part that was inferred or is arguable (an end, a ring closure or a residue). Some results were stated once for a whole list of compounds, not compound by compound. No end group written: not given here.

Experiments:
[1] = target: T1, GALR2 (Homo sapiens, UniProt O43603); test: β-arrestin recruitment, PathHunter CHO-K1 GALR2 cells; format: cell-based; conditions: Table 2; mean +/− standard deviation, n ≥ 3
T1 sequence (O43603 1-387): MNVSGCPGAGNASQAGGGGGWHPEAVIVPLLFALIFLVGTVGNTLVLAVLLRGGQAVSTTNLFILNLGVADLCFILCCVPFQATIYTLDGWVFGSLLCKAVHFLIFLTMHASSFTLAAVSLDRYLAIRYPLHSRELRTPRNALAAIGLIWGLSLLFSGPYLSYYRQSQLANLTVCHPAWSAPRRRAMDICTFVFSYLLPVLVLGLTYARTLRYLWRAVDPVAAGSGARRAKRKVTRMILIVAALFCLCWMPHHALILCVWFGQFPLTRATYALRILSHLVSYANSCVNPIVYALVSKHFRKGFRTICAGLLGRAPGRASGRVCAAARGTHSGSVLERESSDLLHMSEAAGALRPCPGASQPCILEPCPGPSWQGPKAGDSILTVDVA
Method: (§1) Ligands were prepared at half log dilutions using cell plating reagent 2. 5 μl of each ligand was added to cells and plates incubated at 37° C. for 90 minutes. DiscoverX PathHunter detection kit (DiscoverX, USA) was added to cells as described my manufacturer's guidelines and plates incubated for 60 minutes at room temperature in the dark. Chemiluminescent signal was measured using the PHERAstar FS (BMG, Germany).

[2] = target: T2, GalR1 (Homo sapiens, UniProt P47211); test: β-arrestin recruitment, PathHunter CHO-K1 GALR1 cells; format: cell-based; conditions: Table 3; mean +/− standard deviation, n ≥ 3; highest concentration 1 μM (galnon 100 μM)
T2 sequence (P47211 1-349): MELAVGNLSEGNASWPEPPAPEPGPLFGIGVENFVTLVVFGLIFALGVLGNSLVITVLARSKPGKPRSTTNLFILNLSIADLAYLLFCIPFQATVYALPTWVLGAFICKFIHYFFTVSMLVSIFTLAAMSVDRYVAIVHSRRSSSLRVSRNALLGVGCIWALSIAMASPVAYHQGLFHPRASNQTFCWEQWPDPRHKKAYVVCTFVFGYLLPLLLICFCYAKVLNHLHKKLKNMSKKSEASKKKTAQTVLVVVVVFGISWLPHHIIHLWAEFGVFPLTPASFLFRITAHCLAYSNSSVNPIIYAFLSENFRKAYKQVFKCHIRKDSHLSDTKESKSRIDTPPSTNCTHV
Method: as §1

[3] = system: GalR1 compared to GalR2; conditions: cited from earlier work
[4] = target: T1, GALR2; test: Calcium assay, CHO GalR2 cells (FLIPR); conditions: Table 2; mean +/− standard deviation, n ≥ 3
[5] = target: T2, GalR1; test: cAMP HTRF assay, CHO GalR1 cells; format: cell-based; parameters: expressed in transfected cells; host or cells: CHO (Flp-In, pcDNA5/FRT); conditions: Table 3; mean +/− standard deviation, n ≥ 3; highest concentration 1 μM (galnon 100 μM)
Method: The CAMP dynamic 2 kit (Cisbio International) was used as a competitive immunoassay to measure Homogenous Time-Resolved Fluorescence (HTRF). […] Addition of detection reagent involved adding 5 μl d2 conjugated CAMP followed by 5 μl anti-CAMP cryptate conjugate. The two reagents were not pre-mixed; these were both prepared in cell lysis buffer and incubated at room temperature in the dark for one hour.

[6] = cited from earlier work

RGRGNWTLNSAGYLLGPVLPPPALALA-NH2 (C-terminus assumed) [M1145, reference compound]
GalR2 Beta Arrestin, mean pEC50 [1]: 7.9 +/− 0.3
GalR1 Beta Arrestin pEC50 [2]: N/A (N/A denotes activity failed to reach 50% of that of galanin.)
selectivity for GalR2 [3]: 90 fold
GalR2 Calcium, mean pEC50 [4]: 8.9 +/− 0.4
GalR1 cAMP pEC50 [5]: 6.8 +/− 0.4

CC(C)C[C@H](NC(=O)[C@H](CC(C)C)NC(=O)[C@H](Cc1ccc(O)cc1)NC(=O)CNC(=O)[C@H](C)NC(=O)[C@H](CO)NC(=O)[C@H](CC(N)=O)NC(=O)[C@H](CC(C)C)NC(=O)[C@@H](NC(=O)[C@@H](N)Cc1c[nH]c2ccccc12)[C@@H](C)O)C(N)=O [Galanin 2-11, reference compound]
GalR2 Beta Arrestin, mean pEC50 [1]: 6.4 +/− 0.2
half-lives in plasma [6]: < 10 min
GalR2 Calcium, mean pEC50 [4]: 7.6 +/− 0.2

GWTLNSAGYLLGPQPPGFSPFR-NH2 (C-terminus assumed) [M617, reference compound]
GalR2 Beta Arrestin, mean pEC50 [1]: 8.4 +/− 0.2
GalR1 Beta Arrestin pEC50 [2]: 8.68 +/− 0.10
selectivity for GalR1 compared to GalR2 [3]: ~ 25 fold
GalR2 Calcium, mean pEC50 [4]: 9.6 +/− 0.4
GalR1 cAMP pEC50 [5]: 10.0 +/− 0.5
